Test results published in PubChem BioAssay AID504444 (National Center for Advancing Translational Sciences (NCATS), 2011).
In all, about 360,000 compounds went through this assay and about 7,500 (2.1%) were called active. The inconclusive results got no clear call from the source; some entries with a clear call stand among them for comparison. The call rests on the fitted dose curve; in most records, active means well fitted inhibition curve with a large enough effect; inconclusive means small, poorly fitted or top-dose-only effect, or effect the other way; inactive means flat fitted curve, though single readings scatter. Where the call is inconclusive, the potency comes from a doubtful curve fit.

Test: Nrf2 qHTS screen for inhibitors; further: nearly all actives have a fitted effect of over 60% in size
Settings: A549 ARE-Fluc reporter, luciferase luminescence, 18-24 h; activity change, negative = inhibition: at 46 µM (top of the series)
Procedure, shortened: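 In this cell-based qHTS, ARE-driven firefly luciferase in A549 cells reports Nrf2 activity; the luminescent signal after BugLite lysis is the measured value, with a prior CellTiter-Fluor read for cell health.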
On the % scale 0 is the no-effect control and ±100 the full control effect; potency means the concentration at half of the fitted maximal effect.

Q: With `CCOC(=O)c1ccc(NC(=O)c2cccc(S(=O)(=O)N3c4ccccc4CC3C)c2)s1` (stereo not drawn) as the compound, how does the Potency read?
A: The Potency was inconclusive: 20.6 µM [falling, single point].

Q: With `CCOc1cc(C(=S)N2CCOCC2)cc(Br)c1OS(=O)(=O)c1ccccc1` as the compound, how does the Potency read?
A: The Potency was inconclusive: 18.4 µM [falling, single point].

Q: With `Cc1cc(C)nc(NS(=O)(=O)c2ccc(NC(=O)COc3ccc(Cl)cc3C)cc2)n1` as the compound, how does the Potency read?
A: The Potency was inconclusive: 7.31 µM [falling, partial curve, poor fit].

Q: For `CCOc1ccc(C(=O)Nc2cc(-c3nc4ccccc4o3)ccc2C)cc1Cl`, which “activity change, negative = inhibition” value is on record?
A: Its value is inactive: -2.92%.

Q: With `O=C1c2ccccc2C(=O)C12OC2c1ccc(Cl)cc1Cl` (stereo not drawn) as the compound, how does the “activity change, negative = inhibition” value read?
A: The value was inactive: -19.5%.

Q: Which Potency does the source give for `Cc1nc(C)c(C(=O)N(c2ccc(C)c(C)c2)C(C(=O)NCc2ccco2)c2ccccc2)s1` (stereo not drawn) here?
A: Its Potency is inconclusive: 5.17 µM [falling, single point].

Q: For `O=C(Nc1nnc(-c2ccc(F)cc2)o1)c1cc(Cl)sc1Cl`, which Potency is on record?
A: The Potency was inconclusive: 25.9 µM [falling, partial curve, poor fit].

Q: For `Cc1c(Cl)cn2c(=O)cc(CN3CCN(c4ccccc4)CC3)nc2c1Cl`, which Potency is on record?
A: Its Potency is inconclusive: 20.6 µM [falling, partial curve, poor fit].

Q: Which Potency does the source give for `CN(C)c1ccc(-c2noc(C3CCN(C(=O)Nc4ccc(Cl)cc4)CC3)n2)cc1` here?
A: Its Potency is inconclusive: 29.1 µM [falling, single point].

Q: Which activity change, negative = inhibition does the source give for `CCc1ccccc1NC(=O)c1nnn(-c2ccc(F)cc2)c1C` here?
A: The activity change, negative = inhibition was inactive: 4.12% [at 9.27 µM].

Q: Which Potency does the source give for `COc1ccc(OCCSc2nc3ccccc3c(=O)[nH]2)cc1` here?
A: The Potency was active: 4.11 µM.

Q: Which Potency does the source give for `COc1cc2ccccc2cc1C(=O)Nc1ccc2oc(-c3ccc(F)cc3)nc2c1` here?
A: Its Potency is inconclusive: 23.1 µM [activator, single point].

Q: Which Potency does the source give for `CC1CCN(S(=O)(=O)c2ccc3c(c2)oc(=O)n3CC(=O)NCc2ccc(F)cc2)CC1` here?
A: Its Potency is inconclusive: 18.4 µM [falling, single point].

Q: Which Potency does the source give for `CC(OC(=O)c1cccc(-n2cnnn2)c1)C(=O)Nc1cccc(Cl)c1` (stereo not drawn) here?
A: Its Potency is inconclusive: 7.31 µM [falling, partial curve].

Q: For `O=C(Nc1nncs1)c1ccc(S(=O)(=O)c2ccccc2)cc1`, which Potency is on record?
A: The Potency was inconclusive: 8.2 µM [falling, partial curve, poor fit].

Q: For `COc1ccc(-c2cn3nc(SCC(=O)NC4CCCCC4)ccc3n2)cc1`, which Potency is on record?
A: Its Potency is inconclusive: 3.66 µM [activator, single point].

Q: For `COc1cc2cc(CN(Cc3nnnn3Cc3ccco3)C3CCCCC3)c(=O)[nH]c2cc1OC`, which “activity change, negative = inhibition” value is on record?
A: Its value is inactive: 18.4%.

Q: Which Potency does the source give for `CCCCC(=O)NC(c1ccc(OC)c(OC)c1)c1ccc2cccnc2c1O` (stereo not drawn) here?
A: The Potency was inconclusive: 20.6 µM [falling, single point].
